Reference: paper doi:10.1101/2023.06.14.544976

Biological target: SBP-FLAG tagged RAVER1 wild-type protein
Assay: affinity purification with mass spectrometry

B1: SRSF2 (protein, UniProt Q01130 1-221)
chain: MSYGRPPPDVEGMTSLKVDNLTYRTSPDTLRRVFEKYGRVGDVYIPRDRYTKESRGFAFVRFHDKRDAEDAMDAMDGAVLDGRELRVQMARYGRPPDSHHSRRGPPPRRYGGGGYGRRSRSPRRRRRSRSRSRSRSRSRSRSRYSRSKSRSRTRSRSRSTSKSRSARRSKSKSSSVSRSRSRSRSRSRSRSPPPVSKRESKSRSRSKSPPKSPEEEGAVSS
Question: B1 was tested. Which binding did it give?
Answer: The binding was “binds”.

Results are given in words; binding and its absence hold for the method and conditions named. Binding seen in cells or lysates may run through a third protein. These calls come from enrichment with a bait or labelling near it, and not all partners need be listed.
